From patent US4009166A, “Pyrido(2,3-d) pyrimidinones” (Hisamitsu Pharmaceutical Co., Inc., priority 1974, dated 1977)

Tested on: dd-strain male mice
Conditions: deaths 72 hours after administration
Method: The lethal dose was estimated from the death of animals 72 hours after administration.

CN1C(=O)CN=C(c2ccccc2)c2cc(Cl)ccc21 [diazepam, reference compound] was tested. Which “acute toxicity i.p. (lethal dose)” value did it give?
Its value is 300 to 1000 mg/kg.
